Measurements from PMC3398040.
No constants are given. Whether binding was seen depends on the method and setting. Binding seen in cells or lysates may run through a third protein. For some assays here: Binding calls can cover weak binding; strength is not graded here. For some assays here: Where a sequence is shown, tags or fusion partners need not be part of it. Blank lines part the entries; values can stand above or below the molecule they belong to.

What was measured:
[1] = target: T1, GST-tagged full-length Ddi1 (^GSTFL-Ddi1) (yeast) (UniProt P40087); assay: pull-down; recombinant GST fusion on GSH beads incubated with yeast extract, 4°C, 1-2 h, extract buffer (50 mM Tris-Cl pH 7.5, 150 mM NaCl, 5 mM EDTA, 0.1% NP40); washed with 2.5% Triton X100; Western blot (Figures 1A, 1B, 3A, 5E and 5F, extract alone); only the target purified
T1 sequence: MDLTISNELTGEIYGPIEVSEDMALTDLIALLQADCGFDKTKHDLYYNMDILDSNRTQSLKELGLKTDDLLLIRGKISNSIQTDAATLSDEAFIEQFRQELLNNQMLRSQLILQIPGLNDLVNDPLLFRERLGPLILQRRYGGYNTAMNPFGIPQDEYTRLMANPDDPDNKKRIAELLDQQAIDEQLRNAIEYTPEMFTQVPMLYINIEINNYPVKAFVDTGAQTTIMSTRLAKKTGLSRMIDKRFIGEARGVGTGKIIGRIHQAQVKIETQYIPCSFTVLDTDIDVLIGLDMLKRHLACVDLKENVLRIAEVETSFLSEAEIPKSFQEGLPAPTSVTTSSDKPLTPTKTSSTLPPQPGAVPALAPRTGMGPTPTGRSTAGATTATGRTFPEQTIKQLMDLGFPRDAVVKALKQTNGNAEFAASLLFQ

[2] = target: T2, GST-tagged full-length Ufo1 (^GSTFL-Ufo1) (yeast) (UniProt Q04511); assay: as above
T2 sequence: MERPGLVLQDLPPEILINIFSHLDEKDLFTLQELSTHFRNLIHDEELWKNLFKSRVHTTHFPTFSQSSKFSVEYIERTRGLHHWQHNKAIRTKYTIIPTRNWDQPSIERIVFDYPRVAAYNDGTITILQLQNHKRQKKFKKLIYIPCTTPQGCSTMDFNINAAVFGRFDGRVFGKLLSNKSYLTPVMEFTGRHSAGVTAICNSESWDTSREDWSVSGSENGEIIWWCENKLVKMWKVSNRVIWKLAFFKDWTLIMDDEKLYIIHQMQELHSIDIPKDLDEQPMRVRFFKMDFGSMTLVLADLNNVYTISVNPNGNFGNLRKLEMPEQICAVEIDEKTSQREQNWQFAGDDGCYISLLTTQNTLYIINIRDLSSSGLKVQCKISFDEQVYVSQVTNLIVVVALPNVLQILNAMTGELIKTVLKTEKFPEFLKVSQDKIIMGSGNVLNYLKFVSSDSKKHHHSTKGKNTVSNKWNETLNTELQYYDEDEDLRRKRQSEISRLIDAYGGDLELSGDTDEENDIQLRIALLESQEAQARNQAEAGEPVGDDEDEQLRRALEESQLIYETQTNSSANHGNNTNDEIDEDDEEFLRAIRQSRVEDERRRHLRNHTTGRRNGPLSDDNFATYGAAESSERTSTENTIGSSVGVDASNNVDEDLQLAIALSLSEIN

[3] = target: T1, GST-tagged full-length Ddi1 (^GSTFL-Ddi1) (yeast); assay: pull-down; GST-Ddi1, GST-Ddi1ΔUbL or GST-Ddi1ΔUbA on GSH beads incubated with HIS-Rpn1 bacterial lysate together with yeast extract with GFP-Ufo1 or GFP-Ufo1Δuims (Figures 5E, 5F, both present); only the target purified
[4] = target: GST-tagged Ufo1 WD40 domain (^GSTUfo1-WD40 domain) (yeast); assay: pull-down; GST-Ufo1 or GST-Ufo1-WD40 on GSH beads incubated with yeast extract (wild type or ddi1Δ) with myc-Cdc53, a GFP-tagged 19S RP subunit and GFP-Ho present (Figures 2A, 2B, S2, S3); only the target purified
[5] = target: GST-tagged Ufo1 WD40 domain (^GSTUfo1-WD40 domain) (yeast); assay: pull-down; as a3 but yeast extract (wild type or ddi1Δ) without GFP-Ho (Figures 2A, 2B); only the target purified
[6] = target: GST-tagged Ufo1 WD40 domain (^GSTUfo1-WD40 domain) (yeast); assay: pull-down; recombinant GST fusion on GSH beads incubated with bacterial lysate holding a HIS-tagged protein; Western blot (Figures 1C, 3C, 3D, 5D, 5E with Rpn1 alone); only the target purified
[7] = target: GST-tagged Ddi1 lacking the UbA domain (^GSTDdi1ΔUbA) (yeast); assay: pull-down; GST-Ddi1, GST-Ddi1ΔUbL or GST-Ddi1ΔUbA on GSH beads incubated with HIS-Rpn1 bacterial lysate together with yeast extract with GFP-Ufo1 or GFP-Ufo1Δuims (Figures 5E, 5F, both present); only the target purified
[8] = target: GST-tagged Ufo1 WD40 domain (^GSTUfo1-WD40 domain) (yeast); assay: pull-down; recombinant GST fusion on GSH beads incubated with yeast extract, 4°C, 1-2 h, extract buffer (50 mM Tris-Cl pH 7.5, 150 mM NaCl, 5 mM EDTA, 0.1% NP40); washed with 2.5% Triton X100; Western blot (Figures 1A, 1B, 3A, 5E and 5F, extract alone); only the target purified
[9] = target: GST-tagged Ddi1 lacking the UbA domain (^GSTDdi1ΔUbA) (yeast); assay: as above

Molecule: GFP-tagged Ufo1 truncated for the C-terminal UIMs (^GFPUfo1Δuims) (yeast) (domain or fragment)
binding [1]: no binding
binding [2]: no binding
binding [3]: no binding

B1: GFP-tagged Ho endonuclease (^GFPHo) (enzyme, UniProt P09932 1-586)
chain: MLSENTTILMANGEIKDIANVTANSYVMCADGSAARVINVTQGYQKIYNIQQKTKHRAFEGEPGRLDPRRRTVYQRLALQCTAGHKLSVRVPTKPLLEKSGRNATKYKVRWRNLQQCQTLDGRIIIIPKNHHKTFPMTVEGEFAAKRFIEEMERSKGEYFNFDIEVRDLDYLDAQLRISSCIRFGPVLAGNGVLSKFLTGRSDLVTPAVKSMAWMLGLWLGDSTTKEPEISVDSLDPKLMESLRENAKIWGLYLTVCDDHVPLRAKHVRLHYGDGPDENRKTRNLRKNNPFWKAVTILKFKRDLDGEKQIPEFMYGEHIEVREAFLAGLIDSDGYVVKKGEGPESYKIAIQTVYSSIMDGIVHISRSLGMSATVTTRSAREEIIEGRKVQCQFTYDCNVAGGTTSQNVLSYCRSGHKTREVPPIIKREPVYFSFTDDFQGESTVYGLTIEGHKNFLLGNKIEVKSCRGCCVGEQLKISQKKNLKHCVACPRKGIKYFYKDWSGKNRVCARCYGRYKFSGHHCINCKYVPEAREVKKAKDKGEKLGITPEGLPVKGPECIKCGGILQFDAVRGPHKSCGNNAGARIC
modifications: ubiquitylated as produced in yeast (sites not given)
binding [4]: binds

B4: GFP-tagged full-length Ufo1 (^GFPFL-Ufo1) (protein, UniProt Q04511 1-668)
chain: T2 sequence
modifications: ubiquitylated as produced in yeast (sites not given)
binding [7]: binds weakly
binding [8]: binds weakly
binding [9]: binds

Next, values leading:

binding [5]: binds
binding [4]: binds
B2: endogenous Ddi1 (protein, UniProt P40087 1-428)
chain: T1 sequence

binding [6]: binds
B3: HIS-tagged core of Ddi1 without the UbL and UbA domains (^HISΔΔDdi1) (domain or fragment, UniProt P40087 180-325)
chain: QQAIDEQLRNAIEYTPEMFTQVPMLYINIEINNYPVKAFVDTGAQTTIMSTRLAKKTGLSRMIDKRFIGEARGVGTGKIIGRIHQAQVKIETQYIPCSFTVLDTDIDVLIGLDMLKRHLACVDLKENVLRIAEVETSFLSEAEIPK

binding [4]: binds
B5: myc-tagged Cdc53 (^mycCdc53) (protein, UniProt Q12018 1-815)
chain: MSETLPRSDDLEATWNFIEPGINQILGNEKNQASTSKRVYKILSPTMYMEVYTAIYNYCVNKSRSSGHFSTDSRTGQSTILVGSEIYEKLKNYLKNYILNFKQSNSETFLQFYVKRWKRFTIGAIFLNHAFDYMNRYWVQKERSDGKRHIFDVNTLCLMTWKEVMFDPSKDVLINELLDQVTLGREGQIIQRSNISTAIKSLVALGIDPQDLKKLNLNVYIQVFEKPFLKKTQEYYTQYTNDYLEKHSVTEYIFEAHEIIKREEKAMTIYWDDHTKKPLSMALNKVLITDHIEKLENEFVVLLDARDIEKITSLYALIRRDFTLIPRMASVFENYVKKTGENEISSLLAMHKHNIMKNENANPKKLALMTAHSLSPKDYIKKLLEVHDIFSKIFNESFPDDIPLAKALDNACGAFININEFALPAGSPKSATSKTSEMLAKYSDILLKKATKPEVASDMSDEDIITIFKYLTDKDAFETHYRRLFAKRLIHGTSTSAEDEENIIQRLQAANSMEYTGKITKMFQDIRLSKILEDDFAVALKNEPDYSKAKYPDLQPFVLAENMWPFSYQEVEFKLPKELVPSHEKLKESYSQKHNGRILKWLWPLCRGELKADIGKPGRMPFNFTVTLFQMAILLLYNDADVLTLENIQEGTSLTIQHIAAAMVPFIKFKLIQQVPPGLDALVKPETQFKLSRPYKALKTNINFASGVKNDILQSLSGGGHDNHGNKLGNKRLTEDERIEKELNTERQIFLEACIVRIMKAKRNLPHTTLVNECIAQSHQRFNAKVSMVKRAIDSLIQKGYLQRGDDGESYAYLA
